Test results as given in paper PMC11747586 (Chemical Biology & Drug Design, 2025).

Assay: peptide synthesis
Conditions: conjugation step; for final HPLC purity: 210 nm

Question: Which conjugation yield (TFA salt) does the source give for “PEPTIDE1{G.C.G.G.P.L.Y.K.K.I.I.K.K.L.L.E.S.G.G.[Ala(Tz-PEG1-VC-PAB-CPT)].G.G.A.P.L.Y.K.K.I.I.K.K.L.C.E.S.[am]}$PEPTIDE1,PEPTIDE1,2:R3-34:R3$$$V2.0” here?
Answer: Its conjugation yield is 40%.

Question: What does the source list for “cyclo(APLYKKIIKKLLESGGC(S(CH2)2OCO2(CPT-20-yl))GGAPLYKKIIKKLLESGGSGG)”?
Answer: final HPLC purity (TFA salt): 96%; conjugation yield (on cPDIP 2, mass of TFA salt): 38%

Question: For “PEPTIDE1{G.C.G.G.P.L.Y.K.K.I.I.K.K.L.L.E.S.G.G.[Ala(Tz-alk-CPT)].G.G.A.P.L.Y.K.K.I.I.K.K.L.C.E.S.[am]}$PEPTIDE1,PEPTIDE1,2:R3-34:R3$$$V2.0”, which “final HPLC purity” value (TFA salt) is on record?
Answer: The value was “Purity = 92%”.

Question: And the conjugation yield (TFA salt)?
Answer: Its conjugation yield is 26%.

HELM strings list residues between dots; [ac] is acetyl, [am] amide, other brackets name non-standard units. *: point of attachment. S(CH2)2OCO2(CPT-20-yl) = CC[C@@]1(OC(=O)OCCS*)C(=O)OCc2c1cc1n(c2=O)Cc2cc3ccccc3nc2-1
